No constants are given. Whether binding was seen depends on the method and setting. In cells and extracts the contact can be indirect. These calls come from enrichment with a bait or labelling near it, and not all partners need be listed.
B1: FBXO2 (protein, UniProt Q9UK22 1-296)
chain: MDGDGDPESVGQPEEASPEEQPEEASAEEERPEDQQEEEAAAAAAYLDELPEPLLLRVLAALPAAELVQACRLVCLRWKELVDGAPLWLLKCQQEGLVPEGGVEEERDHWQQFYFLSKRRRNLLRNPCGEEDLEGWCDVEHGGDGWRVEELPGDSGVEFTHDESVKKYFASSFEWCRKAQVIDLQAEGYWEELLDTTQPAIVVKDWYSGRSDAGCLYELTVKLLSEHENVLAEFSSGQVAVPQDSDGGGWMEISHTFTDYGPGVRFVRFEHGGQDSVYWKGWFGARVTNSSVWVEP
B2: calmegin (CLGN) (protein, UniProt O14967 20-610)
chain: EFMDDDVETEDFEENSEEIDVNESELSSEIKYKTPQPIGEVYFAETFDSGRLAGWVLSKAKKDDMDEEISIYDGRWEIEELKENQVPGDRGLVLKSRAKHHAISAVLAKPFIFADKPLIVQYEVNFQDGIDCGGAYIKLLADTDDLILENFYDKTSYIIMFGPDKCGEDYKLHFIFRHKHPKTGVFEEKHAKPPDVDLKKFFTDRKTHLYTLVMNPDDTFEVLVDQTVVNKGSLLEDVVPPIKPPKEIEDPNDKKPEEWDERAKIPDPSAVKPEDWDESEPAQIEDSSVVKPAGWLDDEPKFIPDPNAEKPDDWNEDTDGEWEAPQILNPACRIGCGEWKPPMIDNPKYKGVWRPPLVDNPNYQGIWSPRKIPNPDYFEDDHPFLLTSFSALGLELWSMTSDIYFDNFIICSEKEVADHWAADGWRWKIMIANANKPGVLKQLMAAAEGHPWLWLIYLVTAGVPIALITSFCWPRKVKKKHKDTEYKKTDICIPQTKGVLEQEEKEEKAALEKPMDLEEEKKQNDGEMLEKEEESEPEEKSEEEIEIIEGQEESNQSNKSGSEDEMKEADESTGSGDGPIKSVRKRRVRKD
B3: transmembrane protein 43 (TMEM43) (protein, UniProt Q9BTV4 1-400)
chain: MAANYSSTSTRREHVKVKTSSQPGFLERLSETSGGMFVGLMAFLLSFYLIFTNEGRALKTATSLAEGLSLVVSPDSIHSVAPENEGRLVHIIGALRTSKLLSDPNYGVHLPAVKLRRHVEMYQWVETEESREYTEDGQVKKETRYSYNTEWRSEIINSKNFDREIGHKNPSAMAVESFMATAPFVQIGRFFLSSGLIDKVDNFKSLSLSKLEDPHVDIIRRGDFFYHSENPKYPEVGDLRVSFSYAGLSGDDPDLGPAHVVTVIARQRGDQLVPFSTKSGDTLLLLHHGDFSAEEVFHRELRSNSMKTWGLRAAGWMAMFMGLNLMTRILYTLVDWFPVFRDLVNIGLKAFAFCVATSLTLLTVAAGWLFYRPLWALLIAGLALVPILVARTRVPAKKLE
B4: SPCS3 (protein, UniProt P61009 1-180)
chain: MNTVLSRANSLFAFSLSVMAALTFGCFITTAFKDRSVPVRLHVSRIMLKNVEDFTGPRERSDLGFITFDITADLENIFDWNVKQLFLYLSAEYSTKNNALNQVVLWDKIVLRGDNPKLLLKDMKTKYFFFDDGNGLKGNRNVTLTLSWNVVPNAGILPLVTGSGHVSVPFPDTYEITKSY
B5: PREB (protein, UniProt Q9HCU5 1-417)
chain: MGRRRAPELYRAPFPLYALQVDPSTGLLIAAGGGGAAKTGIKNGVHFLQLELINGRLSASLLHSHDTETRATMNLALAGDILAAGQDAHCQLLRFQAHQQQGNKAEKAGSKEQGPRQRKGAAPAEKKCGAETQHEGLELRVENLQAVQTDFSSDPLQKVVCFNHDNTLLATGGTDGYVRVWKVPSLEKVLEFKAHEGEIEDLALGPDGKLVTVGRDLKASVWQKDQLVTQLHWQENGPTFSSTPYRYQACRFGQVPDQPAGLRLFTVQIPHKRLRQPPPCYLTAWDGSNFLPLRTKSCGHEVVSCLDVSESGTFLGLGTVTGSVAIYIAFSLQCLYYVREAHGIVVTDVAFLPEKGRGPELLGSHETALFSVAVDSRCQLHLLPSRRSVPVWLLLLLCVGLIIVTILLLQSAFPGFL
B6: osteosarcoma amplified 9 (OS9) (protein, UniProt Q13438 26-667)
chain: GGVGSLNLEELSEMRYGIEILPLPVMGGQSQSSDVVIVSSKYKQRYECRLPAGAIHFQREREEETPAYQGPGIPELLSPMRDAPCLLKTKDWWTYEFCYGRHIQQYHMEDSEIKGEVLYLGYYQSAFDWDDETAKASKQHRLKRYHSQTYGNGSKCDLNGRPREAEVRFLCDEGAGISGDYIDRVDEPLSCSYVLTIRTPRLCPHPLLRPPPSAAPQAILCHPSLQPEEYMAYVQRQADSKQYGDKIIEELQDLGPQVWSETKSGVAPQKMAGASPTKDDSKDSDFWKMLNEPEDQAPGGEEVPAEEQDPSPEAADSASGAPNDFQNNVQVKVIRSPADLIRFIEELKGGTKKGKPNIGQEQPVDDAAEVPQREPEKERGDPERQREMEEEEDEDEDEDEDEDERQLLGEFEKELEGILLPSDRDRLRSEVKAGMERELENIIQETEKELDPDGLKKESERDRAMLALTSTLNKLIKRLEEKQSPELVKKHKKKRVVPKKPPPSPQPTEEDPEHRVRVRVTKLRLGGPNQDLTVLEMKRENPQLKQIEGLVKELLEREGLTAAGKIEIKIVRPWAEGTEEGARWLTDEDTRNLKEIFFNILVPGAEEAQKERQRQKELESNYRRVWGSPGGEGTGDLDEFDF
B7: HM13 (protein, UniProt Q8TCT9 1-377)
chain: MDSALSDPHNGSAEAGGPTNSTTRPPSTPEGIALAYGSLLLMALLPIFFGALRSVRCARGKNASDMPETITSRDAARFPIIASCTLLGLYLFFKIFSQEYINLLLSMYFFVLGILALSHTISPFMNKFFPASFPNRQYQLLFTQGSGENKEEIINYEFDTKDLVCLGLSSIVGVWYLLRKHWIANNLFGLAFSLNGVELLHLNNVSTGCILLGGLFIYDVFWVFGTNVMVTVAKSFEAPIKLVFPQDLLEKGLEANNFAMLGLGDVVIPGIFIALLLRFDISLKKNTHTYFYTSFAAYIFGLGLTIFIMHIFKHAQPALLYLVPACIGFPVLVALAKGEVTEMFSYEESNPKDPAAVTESKEGTEASASKGLEKKEK

What was measured:
[1] = target: HA-tagged envelope protein 2 (HA-E2) of HCV Jc1 (hepatitis C virus Jc1 (genotype 2a)); assay: affinity purification with mass spectrometry; anti-HA agarose, overnight 4 °C, on pre-cleared lysates (50 mM HEPES pH 7.4, 150 mM NaCl, 10% glycerol, 1% NP-40, 1 mM CaCl2) of Huh-7.5 cells 48 h after transfection with HA-tagged Jc1 RNA of parental background (HA-E2, HAHA-p7, HA-NS4B Q31R) or of Huh-7.5/HA-ApoE cells with Jc1; label-free LC-MS/MS against untagged controls; two data sets for HA-E2
[2] = target: HA-tagged envelope protein 2 (HA-E2) of HCV Jc1 (hepatitis C virus Jc1 (genotype 2a)); assay: affinity purification with mass spectrometry; as a1, cells replicating the HA-E2 virus with core residues 69-72 changed to alanines (core C69-72A); control: the cognate untagged mutant virus; second data set
[3] = target: HA-tagged envelope protein 2 (HA-E2) of HCV Jc1 (hepatitis C virus Jc1 (genotype 2a)); assay: affinity purification with mass spectrometry; as a1, cells replicating the HA-E2 virus with the E1 K179Q mutation; control: the cognate untagged mutant virus; second data set
[4] = target: double HA-epitope tagged p7 (HAHA-p7) of HCV Jc1 (hepatitis C virus Jc1 (genotype 2a)); assay: affinity purification with mass spectrometry; anti-HA agarose, overnight 4 °C, on pre-cleared lysates (50 mM HEPES pH 7.4, 150 mM NaCl, 10% glycerol, 1% NP-40, 1 mM CaCl2) of Huh-7.5 cells 48 h after transfection with HA-tagged Jc1 RNA of parental background (HA-E2, HAHA-p7, HA-NS4B Q31R) or of Huh-7.5/HA-ApoE cells with Jc1; label-free LC-MS/MS against untagged controls; two data sets for HA-E2
[5] = target: HA-tagged envelope protein 2 (HA-E2) of HCV Jc1 (hepatitis C virus Jc1 (genotype 2a)); assay: affinity purification with mass spectrometry; as a1, cells replicating the HA-E2 virus with the core P138A P143A double mutation (core DP); control: the cognate untagged mutant virus; second data set

Row | Binder | binding [1] | binding [2] | also measured
1 | B1 | binds |  | 
2 | B2 | binds | binds | 
3 | B3 | binds |  | 
4 | B4 | binds | binds | binding [3]: binds
5 | B5 | binds |  | binding [4]: binds
6 | B6 |  | binds | binding [5]: binds
7 | B7 | binds |  | 

Reference: paper PMC10846047
